The target in the test is recombinant human IL1RAP ECD (human) (UniProt Q9NPH3). Description: recombinant protein.

Sequences of proteins named here, by UniProt entry; tags and fusion partners are left off. A change or cut given only in a name is not applied to a line headed by its entry.
UniProt Q9NPH3: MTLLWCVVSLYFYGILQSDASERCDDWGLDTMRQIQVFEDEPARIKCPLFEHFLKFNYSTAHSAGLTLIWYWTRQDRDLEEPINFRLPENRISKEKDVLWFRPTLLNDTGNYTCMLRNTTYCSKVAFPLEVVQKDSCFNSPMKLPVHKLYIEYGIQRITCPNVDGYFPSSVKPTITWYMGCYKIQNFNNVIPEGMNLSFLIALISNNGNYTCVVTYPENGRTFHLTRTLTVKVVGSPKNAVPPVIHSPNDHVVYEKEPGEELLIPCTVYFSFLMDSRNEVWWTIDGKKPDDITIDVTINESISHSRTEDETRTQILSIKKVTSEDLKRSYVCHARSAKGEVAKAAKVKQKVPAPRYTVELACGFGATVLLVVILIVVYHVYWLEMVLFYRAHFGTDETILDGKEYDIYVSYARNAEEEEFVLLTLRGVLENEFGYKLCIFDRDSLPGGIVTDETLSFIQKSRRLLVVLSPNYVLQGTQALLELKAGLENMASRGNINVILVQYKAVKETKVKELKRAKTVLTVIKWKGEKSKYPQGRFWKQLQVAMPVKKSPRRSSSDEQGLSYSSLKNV

These are yes or no findings as the source states them, for the method shown. Some binding calls cover weakened binding; strength is not graded here.

The values below come from US20190270826A1.

B1: IAPB47 (antibody, human IgG4 S228P, kappa, F234A L235A, V domains shown)
VH: EVQLVQSGAEVKKPGESLKISCKGSGYSFTSYWIGWVRQMPGKGLEWMGIIYPSDSYTRYSPSFQGQVTISADKSISTAYLQWSSLKASDTAMYYCARRNSAENYADLDYWGQGTLVTVSS
VL: EIVLTQSPGTLSLSPGERATLSCRASQSISNDLNWYQQKPGKAPKLLIYYASSLQSGVPSRFSGSGSGTDFTLTINSLQPEDFATYYCQQSFTAPLTFGQGTKVEIKR
For the molecule B1, the binding result was “binds”.

B2: IAPB38 (antibody, human IgG4 S228P, kappa, F234A L235A, V domains shown)
VH: EVQLLESGGGLVQPGGSLRLSCAASGFTFSNYAMNWVRQAPGKGLEWVSGINYGGGSKYYADSVKGRFTISRDNSKNTLYLQMNSLRAEDTAVYYCAKDYGPFALDYWGQGTLVTVSS
VL: EIVLTQSPATLSLSPGERATLSCRASQSVDDWLAWYQQKPGQAPRLLIYTASNRATGIPARFSGSGSGTDFTLTISSLEPEDFAVYYCQQYHHWPLTFGQGTKVEIKR
As for B2, the binding entry is listed as “binds”.

B3: IAPB55 (antibody, human IgG4 S228P, kappa, F234A L235A, V domains shown)
VH: QLQLQESGPGLVKPSETLSLTCTVSGVSISSSTYYWGWLRQPPGMGLEWTGSIYFTGNTYYNPSLKSRVTISVDTSRNQFSLKLSSVTAADTAVYYCGSLFGDYGYFDYWGQGTLVTVSS
VL: EIVMTQSPATLSVSPGERATLSCRASQFISSNLAWYQQKPGQAPRLLIYGASTRATGIPARFSGSGSGTDFTLTISSLQSEDFAVYYCQQYNNWPFTFGPGTKVDIKR
As to B3, the binding entry is reported as “binds”.

B4: IAPB61 (antibody, human IgG4 S228P, kappa, F234A L235A, V domains shown)
VH: QLQLQESGPGLVKPSETLSLTCTVSGVSISSSTYYWGWLRQPPGMGLEWTGSIYFTGNTYYNPSLKSRVTISVDTSRNQFSLKLSSVTAADTAVYYCGSLFGDYGYFDYWGQGTLVTVSS
VL: EIVMTQSPATLSVPPGERATLSCRASQFISSNLAWYQQKPGQAPRLLIYGASTRATGIPARFSGSGSGTDFTLTISSLQSEDFAVYYCQQYNNWPSTFGPGTKVDIKR
Turning to B4, the binding entry was “binds”.

B5: IAPB54 (antibody, human IgG4 S228P, lambda, F234A L235A, V domains shown)
VH: QVQLVQSGSELKKPGASVKVSCKASGYTFNTYAMNWVRQAPGQGLEWMGWINTNTGNPTYAQGFTGRFVFSLDTSVSTAYLQISSLKAEDTAVYYCARRYFDWLLGAFDIWGQGTMVTVSS
VL: QSALTQPRSVSGSPGHSVTISCTGTSSDVGDYNYVSWYQQRPGKVPKLLIYDVSKRPSGVPDRFSGSKSGNTASLTISGLQAEDEAIYFCCSYAGNYNVVFGGGTKLTVLG
Regarding B5, the binding entry is “binds”.

B6: IAPB62 (antibody, human IgG4 S228P, kappa, F234A L235A, V domains shown)
VH: QVQLVQSGSELKKPGASVKVSCKASGYTFNTYAMNWVRQAPGQGLEWMGWINTNTGNPTYAQGFTGRFVFSLDTSVSTAYLQISSLKAEDTAVYYCARRYFDWLLGAFDIWGQGTMVTVSS
VL: DIQMTQSPSSVSASVGDRVTITCRASQGISSWLAWYQQKPGKAPKLLIYAASSLQSGVPSRFSGSGSGTDFTLTISSLQPEDFATYYCQQANSFPLTFGGGTKVEIKR
As to B6, the binding result is on record as “binds”.
